No constants are given. Whether binding was seen depends on the method and setting. Binding seen in cells or lysates may run through a third protein. These calls come from enrichment with a bait or labelling near it, and not all partners need be listed.
Target: histone deacetylase protein HDAC1 (mouse (endogenous in R1 ESCs)) (UniProt O09106)
Assay: affinity purification with mass spectrometry; two-step IP-iPOND in native (non-fixative) conditions: sonicated nuclear extracts (about mononucleosome size) of ESCs pulsed 10 min with EdU, immunoprecipitated with goat anti-HDAC1 antibody, eluted with competitor peptide, re-purified on streptavidin magnetic beads via biotin-EdU nascent DNA; high-resolution mass spectrometry

Sequences of proteins named here, by UniProt entry; tags and fusion partners are left off.
UniProt O09106: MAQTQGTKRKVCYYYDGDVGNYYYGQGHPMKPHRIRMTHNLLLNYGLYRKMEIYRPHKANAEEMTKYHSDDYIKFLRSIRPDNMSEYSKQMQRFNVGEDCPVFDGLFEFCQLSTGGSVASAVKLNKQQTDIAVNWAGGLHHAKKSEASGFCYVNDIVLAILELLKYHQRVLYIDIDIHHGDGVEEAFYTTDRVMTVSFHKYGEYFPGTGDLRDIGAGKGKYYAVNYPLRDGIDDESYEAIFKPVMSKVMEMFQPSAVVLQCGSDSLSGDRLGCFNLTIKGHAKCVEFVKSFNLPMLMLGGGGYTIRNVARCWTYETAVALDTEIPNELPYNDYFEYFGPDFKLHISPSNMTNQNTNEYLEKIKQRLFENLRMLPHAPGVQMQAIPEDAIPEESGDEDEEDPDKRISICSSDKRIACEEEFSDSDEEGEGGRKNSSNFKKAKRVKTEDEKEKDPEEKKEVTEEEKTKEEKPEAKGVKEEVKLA
UniProt Q8CHY6: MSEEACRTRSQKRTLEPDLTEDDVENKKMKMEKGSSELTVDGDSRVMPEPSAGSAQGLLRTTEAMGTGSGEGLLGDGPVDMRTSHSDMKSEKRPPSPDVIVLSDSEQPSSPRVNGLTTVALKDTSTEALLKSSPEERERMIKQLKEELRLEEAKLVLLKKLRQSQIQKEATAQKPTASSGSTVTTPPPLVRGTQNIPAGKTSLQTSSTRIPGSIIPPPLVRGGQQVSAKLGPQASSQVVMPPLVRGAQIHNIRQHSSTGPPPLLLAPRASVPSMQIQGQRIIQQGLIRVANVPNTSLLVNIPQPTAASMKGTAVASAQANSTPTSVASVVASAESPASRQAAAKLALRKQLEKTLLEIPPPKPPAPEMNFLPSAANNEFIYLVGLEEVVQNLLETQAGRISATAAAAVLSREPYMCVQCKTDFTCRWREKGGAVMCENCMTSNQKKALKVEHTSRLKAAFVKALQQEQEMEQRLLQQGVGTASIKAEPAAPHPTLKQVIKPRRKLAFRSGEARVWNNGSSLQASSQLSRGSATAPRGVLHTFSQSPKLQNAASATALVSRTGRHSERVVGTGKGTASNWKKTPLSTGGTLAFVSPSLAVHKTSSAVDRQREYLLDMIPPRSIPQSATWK
UniProt Q8VHR5: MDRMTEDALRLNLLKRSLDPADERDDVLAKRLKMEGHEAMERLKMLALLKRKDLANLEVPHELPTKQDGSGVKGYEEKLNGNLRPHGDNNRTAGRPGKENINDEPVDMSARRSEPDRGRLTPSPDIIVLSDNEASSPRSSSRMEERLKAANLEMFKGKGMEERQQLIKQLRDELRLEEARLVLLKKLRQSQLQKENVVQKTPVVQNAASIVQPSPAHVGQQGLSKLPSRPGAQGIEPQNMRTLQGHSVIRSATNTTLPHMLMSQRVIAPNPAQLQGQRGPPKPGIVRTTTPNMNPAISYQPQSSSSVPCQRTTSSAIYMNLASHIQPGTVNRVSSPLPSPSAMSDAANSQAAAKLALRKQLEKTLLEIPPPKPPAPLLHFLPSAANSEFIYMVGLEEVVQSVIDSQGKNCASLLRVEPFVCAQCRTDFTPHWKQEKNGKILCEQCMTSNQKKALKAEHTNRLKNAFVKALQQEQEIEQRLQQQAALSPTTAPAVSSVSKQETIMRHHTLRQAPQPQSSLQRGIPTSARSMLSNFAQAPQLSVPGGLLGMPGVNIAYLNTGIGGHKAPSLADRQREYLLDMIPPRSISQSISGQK
UniProt Q8K4B0: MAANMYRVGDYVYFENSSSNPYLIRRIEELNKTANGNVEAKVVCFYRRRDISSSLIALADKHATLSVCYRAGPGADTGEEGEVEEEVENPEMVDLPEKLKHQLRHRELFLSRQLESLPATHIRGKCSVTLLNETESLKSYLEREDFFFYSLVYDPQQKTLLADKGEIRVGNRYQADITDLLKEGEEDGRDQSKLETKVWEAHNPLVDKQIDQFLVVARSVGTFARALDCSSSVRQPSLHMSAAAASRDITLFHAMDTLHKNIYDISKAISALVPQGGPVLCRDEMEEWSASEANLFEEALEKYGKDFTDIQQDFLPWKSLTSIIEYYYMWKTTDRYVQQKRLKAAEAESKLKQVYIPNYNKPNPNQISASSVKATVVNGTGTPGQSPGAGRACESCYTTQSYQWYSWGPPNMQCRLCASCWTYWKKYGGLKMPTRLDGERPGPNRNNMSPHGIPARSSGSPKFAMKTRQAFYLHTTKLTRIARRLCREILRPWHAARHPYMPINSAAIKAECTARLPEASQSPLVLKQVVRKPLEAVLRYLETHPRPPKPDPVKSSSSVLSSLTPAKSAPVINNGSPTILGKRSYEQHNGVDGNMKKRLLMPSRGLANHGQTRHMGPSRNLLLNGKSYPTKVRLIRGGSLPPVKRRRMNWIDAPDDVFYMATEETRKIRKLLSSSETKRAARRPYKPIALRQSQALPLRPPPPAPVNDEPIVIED
UniProt Q9R190: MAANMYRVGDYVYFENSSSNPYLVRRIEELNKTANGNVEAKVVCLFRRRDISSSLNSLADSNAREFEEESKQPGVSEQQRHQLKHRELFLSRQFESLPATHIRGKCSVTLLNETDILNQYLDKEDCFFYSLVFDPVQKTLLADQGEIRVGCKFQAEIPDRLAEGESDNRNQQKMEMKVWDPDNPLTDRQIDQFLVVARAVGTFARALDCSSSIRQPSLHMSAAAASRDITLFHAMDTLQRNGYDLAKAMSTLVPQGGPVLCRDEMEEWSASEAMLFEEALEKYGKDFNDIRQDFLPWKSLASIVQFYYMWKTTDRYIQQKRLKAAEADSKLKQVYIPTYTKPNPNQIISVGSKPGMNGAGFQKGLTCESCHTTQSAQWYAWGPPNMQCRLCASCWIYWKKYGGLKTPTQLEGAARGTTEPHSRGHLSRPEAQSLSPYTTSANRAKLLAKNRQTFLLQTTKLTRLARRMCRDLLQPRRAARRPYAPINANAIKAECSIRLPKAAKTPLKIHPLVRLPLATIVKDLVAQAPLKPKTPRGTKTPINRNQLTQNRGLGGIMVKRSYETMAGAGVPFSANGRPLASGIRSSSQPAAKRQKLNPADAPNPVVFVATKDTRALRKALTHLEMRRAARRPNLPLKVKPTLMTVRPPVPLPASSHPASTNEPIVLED
UniProt Q924K8: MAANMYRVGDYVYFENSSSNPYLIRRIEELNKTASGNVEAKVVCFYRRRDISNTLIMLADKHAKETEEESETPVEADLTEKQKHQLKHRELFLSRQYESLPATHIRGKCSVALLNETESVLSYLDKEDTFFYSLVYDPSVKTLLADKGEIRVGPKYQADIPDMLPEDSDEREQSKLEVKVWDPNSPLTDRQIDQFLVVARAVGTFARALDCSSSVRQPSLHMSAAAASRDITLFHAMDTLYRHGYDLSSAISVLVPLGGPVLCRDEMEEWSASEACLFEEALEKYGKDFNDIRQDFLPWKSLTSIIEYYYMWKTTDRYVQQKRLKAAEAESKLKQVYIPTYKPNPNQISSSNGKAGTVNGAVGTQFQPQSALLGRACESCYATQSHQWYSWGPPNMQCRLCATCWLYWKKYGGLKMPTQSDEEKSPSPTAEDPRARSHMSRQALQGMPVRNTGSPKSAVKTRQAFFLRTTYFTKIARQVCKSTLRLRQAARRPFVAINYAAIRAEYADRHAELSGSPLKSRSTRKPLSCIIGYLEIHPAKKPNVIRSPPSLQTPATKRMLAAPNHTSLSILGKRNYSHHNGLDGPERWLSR

binding, binds:
GATA zinc finger domain-containing protein 2A (GATAD2A) (from UniProt Q8CHY6 1-629)
GATAD2B (from UniProt Q8VHR5 1-594)
metastasis-associated gene 1 protein (MTA1) (from UniProt Q8K4B0 1-715)
metastasis-associated gene 2 protein (MTA2) (from UniProt Q9R190 1-668)
metastasis-associated gene 3 protein (MTA3) (from UniProt Q924K8 1-591)

Source: PMC4066787
